The record followed here is the supplement of paper PMC12595434, “Development of retinoid nuclear receptor pathway antagonists through targeting aldehyde dehydrogenase 1A3” (iScience, 2025).

Chains of the proteins cited; added tags and fusions are not shown. Lines headed by an entry give the natural chain unless they say otherwise; changes in a name come on top.
UniProt Q93062, whole entry, looked up: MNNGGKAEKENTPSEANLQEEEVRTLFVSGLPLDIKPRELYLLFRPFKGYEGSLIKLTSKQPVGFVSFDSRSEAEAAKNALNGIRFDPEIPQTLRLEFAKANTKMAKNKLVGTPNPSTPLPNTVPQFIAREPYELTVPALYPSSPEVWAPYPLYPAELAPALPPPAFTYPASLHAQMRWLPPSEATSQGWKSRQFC
UniProt Q92562: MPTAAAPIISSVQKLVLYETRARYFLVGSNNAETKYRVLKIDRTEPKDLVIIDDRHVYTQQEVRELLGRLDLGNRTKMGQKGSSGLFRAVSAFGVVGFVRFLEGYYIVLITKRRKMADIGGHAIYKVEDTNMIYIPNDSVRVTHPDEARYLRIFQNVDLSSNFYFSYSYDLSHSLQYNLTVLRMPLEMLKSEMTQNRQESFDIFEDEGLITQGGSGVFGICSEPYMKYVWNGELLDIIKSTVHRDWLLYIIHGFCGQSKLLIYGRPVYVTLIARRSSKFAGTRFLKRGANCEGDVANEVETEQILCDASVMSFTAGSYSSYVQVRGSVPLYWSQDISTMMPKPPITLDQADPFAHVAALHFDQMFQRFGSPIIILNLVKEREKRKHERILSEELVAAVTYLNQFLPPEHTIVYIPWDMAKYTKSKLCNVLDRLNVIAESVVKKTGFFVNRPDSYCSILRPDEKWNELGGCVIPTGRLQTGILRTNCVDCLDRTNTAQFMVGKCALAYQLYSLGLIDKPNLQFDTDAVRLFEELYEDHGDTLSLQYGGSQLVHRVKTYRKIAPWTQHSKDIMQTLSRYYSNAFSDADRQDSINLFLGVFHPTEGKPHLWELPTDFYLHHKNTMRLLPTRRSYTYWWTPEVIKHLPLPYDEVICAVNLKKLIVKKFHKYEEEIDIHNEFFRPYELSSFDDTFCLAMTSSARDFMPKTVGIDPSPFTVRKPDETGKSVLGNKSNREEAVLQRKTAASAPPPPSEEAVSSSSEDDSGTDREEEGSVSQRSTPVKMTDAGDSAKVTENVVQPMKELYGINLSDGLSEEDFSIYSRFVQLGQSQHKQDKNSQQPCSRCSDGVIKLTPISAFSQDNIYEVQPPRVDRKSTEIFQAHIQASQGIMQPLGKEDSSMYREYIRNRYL
UniProt Q96AE7: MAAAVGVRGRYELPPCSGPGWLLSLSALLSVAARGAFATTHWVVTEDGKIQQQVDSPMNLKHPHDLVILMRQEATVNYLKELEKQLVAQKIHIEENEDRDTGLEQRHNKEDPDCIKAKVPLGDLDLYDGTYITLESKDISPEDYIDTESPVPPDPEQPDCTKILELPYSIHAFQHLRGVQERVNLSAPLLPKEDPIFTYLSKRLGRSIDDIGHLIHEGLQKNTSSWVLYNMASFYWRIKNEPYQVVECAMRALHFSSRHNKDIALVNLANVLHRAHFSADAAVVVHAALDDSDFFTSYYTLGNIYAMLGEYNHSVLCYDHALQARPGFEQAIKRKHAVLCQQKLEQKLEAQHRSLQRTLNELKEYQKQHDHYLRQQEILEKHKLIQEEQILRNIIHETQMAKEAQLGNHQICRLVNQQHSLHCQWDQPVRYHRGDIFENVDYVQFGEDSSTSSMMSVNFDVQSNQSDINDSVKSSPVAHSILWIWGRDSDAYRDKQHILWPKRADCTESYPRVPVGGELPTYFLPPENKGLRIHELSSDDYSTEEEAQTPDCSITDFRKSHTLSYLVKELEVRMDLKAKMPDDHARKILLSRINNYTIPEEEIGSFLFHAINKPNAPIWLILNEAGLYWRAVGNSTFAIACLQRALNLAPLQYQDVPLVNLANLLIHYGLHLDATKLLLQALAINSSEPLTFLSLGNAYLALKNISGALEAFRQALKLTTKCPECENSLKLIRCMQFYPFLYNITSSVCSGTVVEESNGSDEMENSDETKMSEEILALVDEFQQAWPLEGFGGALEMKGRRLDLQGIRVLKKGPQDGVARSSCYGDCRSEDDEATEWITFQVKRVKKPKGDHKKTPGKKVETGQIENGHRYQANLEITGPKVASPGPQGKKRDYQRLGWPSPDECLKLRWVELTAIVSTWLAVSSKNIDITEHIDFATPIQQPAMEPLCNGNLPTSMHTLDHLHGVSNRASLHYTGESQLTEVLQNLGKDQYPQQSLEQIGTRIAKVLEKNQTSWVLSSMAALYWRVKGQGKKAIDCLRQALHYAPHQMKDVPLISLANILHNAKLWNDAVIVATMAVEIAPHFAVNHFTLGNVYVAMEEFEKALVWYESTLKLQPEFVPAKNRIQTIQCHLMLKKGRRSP
UniProt Q8WYB5, whole entry: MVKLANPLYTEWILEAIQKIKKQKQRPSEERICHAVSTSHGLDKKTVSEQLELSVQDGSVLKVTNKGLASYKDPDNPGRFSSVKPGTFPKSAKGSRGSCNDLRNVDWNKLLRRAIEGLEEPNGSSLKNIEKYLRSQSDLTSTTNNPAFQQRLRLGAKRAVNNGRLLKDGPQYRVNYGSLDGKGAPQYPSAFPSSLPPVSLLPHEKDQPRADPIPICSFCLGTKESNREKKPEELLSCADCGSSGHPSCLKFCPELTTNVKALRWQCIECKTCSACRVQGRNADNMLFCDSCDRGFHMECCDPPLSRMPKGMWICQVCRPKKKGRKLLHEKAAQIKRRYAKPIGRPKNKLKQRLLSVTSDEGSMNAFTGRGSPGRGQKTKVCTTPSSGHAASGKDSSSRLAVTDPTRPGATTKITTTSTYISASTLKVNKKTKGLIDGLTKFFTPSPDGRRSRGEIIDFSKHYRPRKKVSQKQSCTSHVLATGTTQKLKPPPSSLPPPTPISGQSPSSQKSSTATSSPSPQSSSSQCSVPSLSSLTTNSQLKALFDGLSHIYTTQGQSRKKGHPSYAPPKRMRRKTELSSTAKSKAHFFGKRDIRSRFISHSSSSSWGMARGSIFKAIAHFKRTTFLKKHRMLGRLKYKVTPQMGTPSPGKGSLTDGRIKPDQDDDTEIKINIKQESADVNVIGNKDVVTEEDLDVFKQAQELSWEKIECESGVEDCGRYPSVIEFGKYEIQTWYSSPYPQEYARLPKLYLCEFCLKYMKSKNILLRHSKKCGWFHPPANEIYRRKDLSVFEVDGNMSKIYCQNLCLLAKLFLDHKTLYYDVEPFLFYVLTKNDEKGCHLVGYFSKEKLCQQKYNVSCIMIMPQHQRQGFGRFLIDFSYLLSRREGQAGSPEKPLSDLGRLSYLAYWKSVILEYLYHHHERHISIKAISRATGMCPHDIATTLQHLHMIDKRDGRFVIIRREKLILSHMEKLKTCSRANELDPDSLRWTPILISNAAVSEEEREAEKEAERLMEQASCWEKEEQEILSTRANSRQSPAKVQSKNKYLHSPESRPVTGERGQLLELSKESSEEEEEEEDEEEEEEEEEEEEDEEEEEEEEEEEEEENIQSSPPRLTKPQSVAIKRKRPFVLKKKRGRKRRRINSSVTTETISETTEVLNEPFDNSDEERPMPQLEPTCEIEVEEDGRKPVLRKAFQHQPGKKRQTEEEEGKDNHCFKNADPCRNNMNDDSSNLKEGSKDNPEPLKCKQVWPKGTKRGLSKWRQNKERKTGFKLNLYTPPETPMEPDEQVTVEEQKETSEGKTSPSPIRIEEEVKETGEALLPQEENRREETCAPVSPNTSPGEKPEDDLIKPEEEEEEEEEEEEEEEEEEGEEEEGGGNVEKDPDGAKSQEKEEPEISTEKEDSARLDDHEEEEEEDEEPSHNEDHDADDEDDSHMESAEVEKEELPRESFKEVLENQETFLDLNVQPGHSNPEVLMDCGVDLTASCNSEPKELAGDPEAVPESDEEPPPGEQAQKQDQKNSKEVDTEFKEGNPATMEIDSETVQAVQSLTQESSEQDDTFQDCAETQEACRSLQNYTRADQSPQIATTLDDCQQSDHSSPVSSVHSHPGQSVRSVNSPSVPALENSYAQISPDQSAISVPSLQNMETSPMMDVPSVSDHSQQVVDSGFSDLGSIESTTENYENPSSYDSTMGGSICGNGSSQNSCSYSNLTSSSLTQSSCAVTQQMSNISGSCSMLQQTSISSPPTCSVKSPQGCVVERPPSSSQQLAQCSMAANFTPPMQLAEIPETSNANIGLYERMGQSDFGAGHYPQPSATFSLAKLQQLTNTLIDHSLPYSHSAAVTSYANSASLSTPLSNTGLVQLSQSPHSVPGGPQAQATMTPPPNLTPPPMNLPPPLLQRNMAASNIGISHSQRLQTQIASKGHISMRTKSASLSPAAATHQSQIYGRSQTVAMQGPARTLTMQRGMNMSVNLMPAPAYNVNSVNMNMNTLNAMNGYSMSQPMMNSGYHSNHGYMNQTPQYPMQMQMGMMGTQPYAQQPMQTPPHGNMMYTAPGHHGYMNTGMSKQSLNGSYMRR
UniProt Q96CD2: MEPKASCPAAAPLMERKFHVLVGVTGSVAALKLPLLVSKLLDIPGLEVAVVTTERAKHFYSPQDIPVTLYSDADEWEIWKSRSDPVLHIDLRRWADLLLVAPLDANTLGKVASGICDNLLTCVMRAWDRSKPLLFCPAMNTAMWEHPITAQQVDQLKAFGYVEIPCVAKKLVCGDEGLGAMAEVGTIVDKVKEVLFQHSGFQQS
UniProt Q96AC1: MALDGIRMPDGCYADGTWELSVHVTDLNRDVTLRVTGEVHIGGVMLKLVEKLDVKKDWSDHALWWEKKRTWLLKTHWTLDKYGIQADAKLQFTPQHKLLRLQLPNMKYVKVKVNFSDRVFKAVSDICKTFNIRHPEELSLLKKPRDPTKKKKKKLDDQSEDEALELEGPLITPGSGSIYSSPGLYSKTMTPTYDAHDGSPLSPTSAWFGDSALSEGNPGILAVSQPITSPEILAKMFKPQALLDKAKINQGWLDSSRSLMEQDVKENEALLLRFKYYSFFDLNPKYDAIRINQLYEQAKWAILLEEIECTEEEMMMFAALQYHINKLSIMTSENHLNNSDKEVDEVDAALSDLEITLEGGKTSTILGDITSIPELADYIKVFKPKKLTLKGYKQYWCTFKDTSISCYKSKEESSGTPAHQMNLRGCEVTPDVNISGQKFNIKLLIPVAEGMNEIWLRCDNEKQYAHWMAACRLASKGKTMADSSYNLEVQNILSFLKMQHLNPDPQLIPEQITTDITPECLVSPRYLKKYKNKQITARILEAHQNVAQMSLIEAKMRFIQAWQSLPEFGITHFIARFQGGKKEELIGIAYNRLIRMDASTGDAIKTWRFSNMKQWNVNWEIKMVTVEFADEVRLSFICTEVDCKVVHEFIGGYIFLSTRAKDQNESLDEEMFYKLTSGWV
UniProt Q8WX93: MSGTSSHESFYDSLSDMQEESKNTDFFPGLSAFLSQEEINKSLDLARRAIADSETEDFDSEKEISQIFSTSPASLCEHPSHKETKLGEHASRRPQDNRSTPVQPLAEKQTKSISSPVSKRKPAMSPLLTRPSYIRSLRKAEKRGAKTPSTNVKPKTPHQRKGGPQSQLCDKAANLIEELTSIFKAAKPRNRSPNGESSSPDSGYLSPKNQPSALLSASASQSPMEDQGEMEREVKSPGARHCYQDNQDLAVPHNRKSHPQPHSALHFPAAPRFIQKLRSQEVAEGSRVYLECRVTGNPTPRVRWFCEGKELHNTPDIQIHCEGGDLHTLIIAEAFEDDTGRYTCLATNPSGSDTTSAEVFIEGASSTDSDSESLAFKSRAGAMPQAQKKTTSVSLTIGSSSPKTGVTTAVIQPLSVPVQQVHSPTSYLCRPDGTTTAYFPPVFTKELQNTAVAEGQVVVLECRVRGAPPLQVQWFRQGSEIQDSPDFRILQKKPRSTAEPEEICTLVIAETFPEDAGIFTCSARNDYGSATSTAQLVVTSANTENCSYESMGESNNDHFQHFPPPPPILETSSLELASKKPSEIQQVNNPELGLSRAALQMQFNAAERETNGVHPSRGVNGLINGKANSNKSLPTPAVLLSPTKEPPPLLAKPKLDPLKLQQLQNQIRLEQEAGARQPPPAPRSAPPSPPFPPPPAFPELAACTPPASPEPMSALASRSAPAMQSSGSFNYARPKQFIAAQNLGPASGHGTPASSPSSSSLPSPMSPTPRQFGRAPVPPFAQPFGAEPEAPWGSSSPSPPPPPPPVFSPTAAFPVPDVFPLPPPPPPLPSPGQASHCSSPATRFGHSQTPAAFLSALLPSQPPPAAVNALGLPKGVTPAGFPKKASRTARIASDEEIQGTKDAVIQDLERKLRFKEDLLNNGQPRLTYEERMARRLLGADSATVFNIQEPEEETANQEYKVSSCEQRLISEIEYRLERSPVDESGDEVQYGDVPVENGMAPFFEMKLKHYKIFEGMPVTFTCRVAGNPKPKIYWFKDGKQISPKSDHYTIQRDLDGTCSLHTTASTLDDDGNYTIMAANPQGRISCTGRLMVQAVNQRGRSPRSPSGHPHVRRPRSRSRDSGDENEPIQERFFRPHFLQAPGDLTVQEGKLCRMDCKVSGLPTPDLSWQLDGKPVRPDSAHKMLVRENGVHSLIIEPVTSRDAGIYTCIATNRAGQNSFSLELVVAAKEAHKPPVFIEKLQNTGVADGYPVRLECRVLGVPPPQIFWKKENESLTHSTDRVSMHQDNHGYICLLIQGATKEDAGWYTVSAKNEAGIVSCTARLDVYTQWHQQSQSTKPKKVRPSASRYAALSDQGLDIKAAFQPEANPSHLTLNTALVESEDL

The other results are listed elsewhere or left out. Single values of this set are uncertain.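 Tm was set to 64 °C where no melting was found, and many curves are irregular.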

Compound in the first experiment: CCc1cnccc1C(=O)Nc1cc2c(cc1F)NC(=O)CC2
Kind of experiment: melting temperature shift (DMSO Tm minus MBE1-treated Tm) in cellular thermal proteome profiling; higher = less thermal stabilization by MBE1 (negative = stabilized by MBE1). The settings on record: A375; MBE1 concentration: 100 nM.
Take PTP4A1 (UniProt Q93096): the melting temperature shift is -1.8 °C.
Consider HAUS1 (UniProt Q96CS2), for which the melting temperature shift is -0.692 °C.
The same measure, in the same setting: to UniProt Q93062 belongs -0.908 °C; to SMARCC1 (UniProt Q92922), -0.416 °C; to TBC1D5 (UniProt Q92609), 0.409 °C.
In the case of RAD50 (UniProt Q92878), the melting temperature shift was -0.598 °C.
In the case of PRCC (UniProt Q92733), the melting temperature shift was -1.43 °C.
On the same count and under the same terms, to UniProt Q92562 belongs -0.14 °C; to UniProt Q92484, -1.11 °C; to COPS5 (UniProt Q92905), -0.838 °C.
As to USP9X (UniProt Q93008), the melting temperature shift amounted to 0.794 °C.
Same read-out and setting: to ERLEC1 (UniProt Q96DZ1) belongs -1.27 °C; to VTI1A (UniProt Q96AJ9), -2.82 °C.
For the target UniProt Q969J3, the melting temperature shift was -0.349 °C.
Same read-out and setting: to TTC17 (UniProt Q96AE7) belongs -1.19 °C; to OVCA2 (UniProt Q8WZ82), -0.894 °C.
Still for that read-out and setting: to CELF1 (UniProt Q92879) belongs -1.05 °C.
On the same count and under the same terms, to DCPS (UniProt Q96C86) belongs -0.988 °C; to LENG9 (UniProt Q96B70), -1.03 °C; to EFHD2 (UniProt Q96C19), -0.768 °C.
As to NDRG1 (UniProt Q92597), the melting temperature shift is -0.248 °C.
For UniProt Q8WYB5, the melting temperature shift was determined as 0.49 °C.
As to TIFA (UniProt Q96CG3), the melting temperature shift was -1.04 °C.
EXT2 (UniProt Q93063): the melting temperature shift was 0.416 °C.
The same measure, in the same setting: to OSTF1 (UniProt Q92882) belongs 0.629 °C; to RSPRY1 (UniProt Q96DX4), 0.423 °C; to WASF1 (UniProt Q92558), -3.36 °C.
Take UniProt Q93073: the melting temperature shift is 1.43 °C.
In the case of SEH1L (UniProt Q96EE3), the melting temperature shift was -0.0201 °C.
For the target USP7 (UniProt Q93009), the melting temperature shift is -0.683 °C.
On to IGSF8 (UniProt Q969P0), for which the melting temperature shift was -2.4 °C.
Same read-out and setting: to CREBBP (UniProt Q92793) belongs -0.565 °C; to C18ORF8 (UniProt Q96DM3), 0.256 °C; to H1FX (UniProt Q92522), -0.759 °C.
For the target UniProt Q96CD2, the melting temperature shift is -2.32 °C.
UBXN4 (UniProt Q92575): the melting temperature shift was -0.0122 °C.
Still for that read-out and setting: to FERMT2 (UniProt Q96AC1) belongs -0.215 °C; to PALLD (UniProt Q8WX93), -2.56 °C.

The same experiment, now with this note: A375; MBE1 concentration: 1 uM.
With PTP4A1 (UniProt Q93096), the melting temperature shift was -0.679 °C.
HAUS1 (UniProt Q96CS2): the melting temperature shift is -0.922 °C.
UniProt Q93062: the melting temperature shift was -1.07 °C.
The same measure, in the same setting: to SMARCC1 (UniProt Q92922) belongs -0.243 °C; to TBC1D5 (UniProt Q92609), -0.318 °C.
For the target RAD50 (UniProt Q92878), the melting temperature shift is -0.32 °C.
For the target PRCC (UniProt Q92733), the melting temperature shift is -2.88 °C.
Still for that read-out and setting: to UniProt Q92562 belongs 0.11 °C.
For UniProt Q92484, the melting temperature shift was -4.57 °C.
Consider COPS5 (UniProt Q92905), for which the melting temperature shift amounted to 0.39 °C.
On the same count and under the same terms, to USP9X (UniProt Q93008) belongs 0.0794 °C.
Still for that read-out and setting: to ERLEC1 (UniProt Q96DZ1) belongs 0.598 °C.
Same read-out and setting: to VTI1A (UniProt Q96AJ9) belongs 1.27 °C; to UniProt Q969J3, 0.812 °C; to TTC17 (UniProt Q96AE7), 0.611 °C.
With OVCA2 (UniProt Q8WZ82), the melting temperature shift was -0.89 °C.
Still for that read-out and setting: to CELF1 (UniProt Q92879) belongs -0.349 °C; to DCPS (UniProt Q96C86), -1.79 °C; to LENG9 (UniProt Q96B70), -0.102 °C.
Consider EFHD2 (UniProt Q96C19), for which the melting temperature shift was determined as 1.11 °C.
On the same count and under the same terms, to NDRG1 (UniProt Q92597) belongs 0.349 °C; to UniProt Q8WYB5, 3.58 °C; to TIFA (UniProt Q96CG3), -0.867 °C.
On to EXT2 (UniProt Q93063), for which the melting temperature shift was determined as 0.28 °C.
Same read-out and setting: to OSTF1 (UniProt Q92882) belongs 0.128 °C; to RSPRY1 (UniProt Q96DX4), 1.46 °C; to WASF1 (UniProt Q92558), 0.635 °C.
On the same count and under the same terms, to UniProt Q93073 belongs -0.256 °C; to SEH1L (UniProt Q96EE3), 0.619 °C; to USP7 (UniProt Q93009), -0.325 °C.
Same read-out and setting: to IGSF8 (UniProt Q969P0) belongs -2.94 °C; to CREBBP (UniProt Q92793), 0.36 °C; to C18ORF8 (UniProt Q96DM3), 0 °C.
Consider H1FX (UniProt Q92522), for which the melting temperature shift is -0.319 °C.
Regarding UniProt Q96CD2, the melting temperature shift was -4.06 °C.
As for UBXN4 (UniProt Q92575), the melting temperature shift stood at 0.623 °C.
Regarding FERMT2 (UniProt Q96AC1), the melting temperature shift is 0.657 °C.
On the same count and under the same terms, to PALLD (UniProt Q8WX93) belongs 1.07 °C.
